Measurements published in PMC10671326, “In Vivo and In Vitro Characterization of the RNA Binding Capacity of SETD1A (KMT2F)”.
No constants are given. Whether binding was seen depends on the method and setting. Binding seen in cells or lysates may run through a third protein. Some results given as binding are weak or reduced against the parent protein; the word gives no strength.

By UniProt entry, the sequences of proteins in these tests, tags left out.
UniProt O15047: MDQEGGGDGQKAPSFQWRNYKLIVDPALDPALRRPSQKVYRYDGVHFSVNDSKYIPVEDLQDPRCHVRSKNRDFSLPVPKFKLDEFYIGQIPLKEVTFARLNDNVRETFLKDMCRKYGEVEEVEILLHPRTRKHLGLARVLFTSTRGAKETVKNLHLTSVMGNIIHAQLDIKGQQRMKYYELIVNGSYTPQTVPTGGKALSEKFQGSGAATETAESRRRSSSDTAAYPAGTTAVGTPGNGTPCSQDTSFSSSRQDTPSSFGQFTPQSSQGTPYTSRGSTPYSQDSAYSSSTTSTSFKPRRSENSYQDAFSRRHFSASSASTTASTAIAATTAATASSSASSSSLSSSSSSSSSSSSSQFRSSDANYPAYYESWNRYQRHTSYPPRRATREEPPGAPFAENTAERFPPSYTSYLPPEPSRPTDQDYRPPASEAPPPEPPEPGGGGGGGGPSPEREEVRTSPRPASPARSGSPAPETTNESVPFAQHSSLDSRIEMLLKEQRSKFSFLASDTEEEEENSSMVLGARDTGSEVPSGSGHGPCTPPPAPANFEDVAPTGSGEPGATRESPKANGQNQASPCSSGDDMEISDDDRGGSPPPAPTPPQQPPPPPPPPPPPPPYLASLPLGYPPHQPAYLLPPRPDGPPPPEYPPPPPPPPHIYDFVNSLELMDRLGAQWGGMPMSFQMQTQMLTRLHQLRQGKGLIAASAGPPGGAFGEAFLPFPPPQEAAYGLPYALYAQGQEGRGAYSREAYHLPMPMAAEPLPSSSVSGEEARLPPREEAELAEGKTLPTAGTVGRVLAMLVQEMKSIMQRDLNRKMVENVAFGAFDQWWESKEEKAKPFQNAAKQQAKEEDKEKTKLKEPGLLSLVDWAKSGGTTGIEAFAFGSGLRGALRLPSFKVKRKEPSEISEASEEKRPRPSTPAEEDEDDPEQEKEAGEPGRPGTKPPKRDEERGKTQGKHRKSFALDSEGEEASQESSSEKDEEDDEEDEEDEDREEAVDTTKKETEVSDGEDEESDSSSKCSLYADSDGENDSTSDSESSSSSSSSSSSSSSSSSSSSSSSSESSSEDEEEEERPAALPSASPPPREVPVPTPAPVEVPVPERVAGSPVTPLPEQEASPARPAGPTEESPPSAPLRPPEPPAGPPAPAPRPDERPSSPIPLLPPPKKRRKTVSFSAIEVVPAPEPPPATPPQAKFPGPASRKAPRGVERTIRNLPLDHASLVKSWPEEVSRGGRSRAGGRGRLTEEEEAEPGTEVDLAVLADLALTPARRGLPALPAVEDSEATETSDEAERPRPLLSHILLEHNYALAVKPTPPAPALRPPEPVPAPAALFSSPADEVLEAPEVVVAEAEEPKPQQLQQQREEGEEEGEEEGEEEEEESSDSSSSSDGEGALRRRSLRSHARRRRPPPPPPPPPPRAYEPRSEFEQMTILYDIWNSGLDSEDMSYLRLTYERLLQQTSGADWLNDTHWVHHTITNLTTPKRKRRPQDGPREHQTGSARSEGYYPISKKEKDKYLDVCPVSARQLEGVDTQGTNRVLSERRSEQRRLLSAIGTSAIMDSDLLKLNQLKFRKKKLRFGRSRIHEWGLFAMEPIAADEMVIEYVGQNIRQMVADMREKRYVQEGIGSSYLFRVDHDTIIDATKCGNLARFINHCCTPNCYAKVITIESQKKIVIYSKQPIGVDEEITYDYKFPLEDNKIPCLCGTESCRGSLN

T1: SC-35 (Serine/arginine-rich splicing factor 2) (human (endogenous in HEK293T)) (UniProt Q01130)
T1 sequence: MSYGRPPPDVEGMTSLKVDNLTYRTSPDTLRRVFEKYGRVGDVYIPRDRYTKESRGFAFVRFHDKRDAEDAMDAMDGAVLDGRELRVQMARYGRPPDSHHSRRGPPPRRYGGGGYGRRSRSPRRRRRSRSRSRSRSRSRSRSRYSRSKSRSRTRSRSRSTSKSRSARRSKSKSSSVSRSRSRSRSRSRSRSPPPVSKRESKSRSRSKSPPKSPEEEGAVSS

B1: PSPC1 (Paraspeckle component 1) (protein, UniProt Q8WXF1 1-523)
chain: MMLRGNLKQVRIEKNPARLRALESAVGESEPAAAAAMALALAGEPAPPAPAPPEDHPDEEMGFTIDIKSFLKPGEKTYTQRCRLFVGNLPTDITEEDFKRLFERYGEPSEVFINRDRGFGFIRLESRTLAEIAKAELDGTILKSRPLRIRFATHGAALTVKNLSPVVSNELLEQAFSQFGPVEKAVVVVDDRGRATGKGFVEFAAKPPARKALERCGDGAFLLTTTPRPVIVEPMEQFDDEDGLPEKLMQKTQQYHKEREQPPRFAQPGTFEFEYASRWKALDEMEKQQREQVDRNIREAKEKLEAEMEAARHEHQLMLMRQDLMRRQEELRRLEELRNQELQKRKQIQLRHEEEHRRREEEMIRHREQEELRRQQEGFKPNYMENREQEMRMGDMGPRGAINMGDAFSPAPAGNQGPPPMMGMNMNNRATIPGPPMGPGPAMGPEGAANMGTPMMPDNGAVHNDRFPQGPPSQMGSPMGSRTGSETPQAPMSGVGPVSGGPGGFGRGSQGGNFEGPNKRRRY

Target: T1, SC-35 (Serine/arginine-rich splicing factor 2) (human (endogenous in HEK293T))
Assay: co-IP; HEK293T cells crosslinked with 0.75% formaldehyde; sonicated nuclear lysate without RNase inhibitor; 6 µg anti-target IgG overnight at 4 °C, protein A/G magnetic beads; low-salt (150 mM NaCl) and high-salt (500 mM NaCl) washes; Western blot

| Molecule | binding |
| --- | --- |
| SETD1A (KMT2F), histone-lysine N-methyltransferase (from UniProt O15047 1-1707) | binds |
| B1 | binds |
